No constants are given. Whether binding was seen depends on the method and setting. Some entries that bind do so weakly or less than the wild type.
Key:
[1] = target: recombinant human TACE catalytic domain (Arg215-Val477-GlySer-His6) (human) (UniProt P78536); assay: ELISA on immobilised catalytic domain
[2] = target: recombinant human TACE ectodomain (Arg215-Arg651) (human) (UniProt P78536); assay: competition ELISA: immobilised TACE ectodomain pre-incubated with titrated N-TIMP-3, then probed with D1(A12) FAb [panel B]

By UniProt entry, the sequences of proteins in these tests, tags left out. Where a name states a change or a piece, a line headed by the entry shows the natural chain unless it says otherwise.
UniProt P78536: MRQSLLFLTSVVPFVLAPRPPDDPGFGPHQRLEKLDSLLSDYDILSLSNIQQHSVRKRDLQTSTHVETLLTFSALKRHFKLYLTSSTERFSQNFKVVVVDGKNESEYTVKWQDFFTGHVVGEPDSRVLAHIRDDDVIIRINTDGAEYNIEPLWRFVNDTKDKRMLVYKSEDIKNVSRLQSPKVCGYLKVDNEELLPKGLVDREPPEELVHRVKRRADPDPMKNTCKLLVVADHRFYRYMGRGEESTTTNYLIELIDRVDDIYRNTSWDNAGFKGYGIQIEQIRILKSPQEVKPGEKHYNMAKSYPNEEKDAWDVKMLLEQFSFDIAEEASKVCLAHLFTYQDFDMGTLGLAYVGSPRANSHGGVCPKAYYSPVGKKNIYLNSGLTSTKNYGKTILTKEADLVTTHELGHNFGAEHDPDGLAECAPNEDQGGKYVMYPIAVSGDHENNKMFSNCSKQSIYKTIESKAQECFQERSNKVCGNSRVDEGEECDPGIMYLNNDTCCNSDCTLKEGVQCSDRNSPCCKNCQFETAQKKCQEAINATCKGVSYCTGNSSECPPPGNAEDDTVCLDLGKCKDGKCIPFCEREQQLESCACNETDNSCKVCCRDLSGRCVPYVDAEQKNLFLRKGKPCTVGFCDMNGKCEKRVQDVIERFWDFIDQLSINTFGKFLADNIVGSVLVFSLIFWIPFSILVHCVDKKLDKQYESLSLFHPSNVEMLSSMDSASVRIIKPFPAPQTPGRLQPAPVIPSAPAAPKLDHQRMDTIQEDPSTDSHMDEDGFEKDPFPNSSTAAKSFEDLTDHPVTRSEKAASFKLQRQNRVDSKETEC

binding [1]: binds | binding [2]: binds
B1: N-TIMP-3 (other, UniProt P35625 24-144, looked up)
chain: CTCSPSHPQDAFCNSDIVIRAKVVGKKLVKEGPFGTLVYTIKQMKMYRGFTKMPHVQYIHTEASESLCGLKLEVNKYQYLLTGRVYDGKMYTGLCNFVERWDQLTLSQRKGLNYRYHLGCN
notes: domain: N-terminal fragment; also called amino-terminal domain of TIMP-3
